Measured values from US20260242453A1.
These are yes or no findings as the source states them, for the method shown. Some entries that bind do so weakly or less than the wild type.

Chains of the proteins cited; added tags and fusions are not shown. Residues count along the entry.
UniProt P04280, residues 17-392: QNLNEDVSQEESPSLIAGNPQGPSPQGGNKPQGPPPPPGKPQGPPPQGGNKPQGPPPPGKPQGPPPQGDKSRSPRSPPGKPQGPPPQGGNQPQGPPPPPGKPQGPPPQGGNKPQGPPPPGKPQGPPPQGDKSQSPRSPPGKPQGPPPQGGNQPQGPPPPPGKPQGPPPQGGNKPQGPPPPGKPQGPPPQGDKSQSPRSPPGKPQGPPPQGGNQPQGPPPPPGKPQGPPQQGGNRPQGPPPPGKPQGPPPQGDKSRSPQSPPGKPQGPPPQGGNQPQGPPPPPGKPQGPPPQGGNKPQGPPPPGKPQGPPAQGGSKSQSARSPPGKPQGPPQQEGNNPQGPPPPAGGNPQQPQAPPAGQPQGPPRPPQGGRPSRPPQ

B1: Rat anti-hPRB1 IgG (8A10) mAb (antibody, V domains shown)
VH: QVNLLQSGAALVKPGASVKLSCKASGYTFTDYYIHWVRQSHGKSLEWIGFINPNSGYTTYNEKFKSKATLTVDKSTNTAYMELSRLTSEDSATYYCTRFAMDAWGQGASVTVSS
VL: DVVVSQTPPTLSATIGQSVSISCRSSQSLLHSNGNTYLNWLLQRPGQPPQLLIYLVSRLESGVPNRFSGSGSGTDFTLKISGVEAEDLGVYYCVQSIHAPNTFGAGTKLELK
B2: Rat anti-hPRB1 IgM (2B3) mAb (antibody, V domains shown)
VH: QIQLVQSGPELKKPGESVKISCKASGYTFTDYAMHWVKQAPGKGLKWMGWINTYTGKPTYADDCKGRFVFSLEASASTANLQISNLKNEDTATYFCAREMYTTDYYYVDYWGQGVMVTVSS
VL: DIHVTQSPASLSASPEEIVTITCQASQDIDSSLLWYQQKPGKSPQLLIYSATILADGVPSRFSGSRSGTQYSLKISRLQVEDIGTYYCLQFSSSPLTFGSGTKLEIK

Assays:
[1] = molecular target: human PRB1 protein (human) (UniProt P04280); test: Western blot of saliva; pull-down assay from serum
[2] = molecular target: human PRB1 protein (human) (UniProt P04280); test: sandwich ELISA, 2B3 capture and 8A10 detection, human saliva and serum samples
[3] = molecular target: human PRB1 protein (human) (UniProt P04280); test: sandwich ELISA, 2B3 mAb as capture and 8A10 mAb as detection antibody, saliva and serum specimens
[4] = molecular target: human PRB1 protein (human) (UniProt P04280); test: sandwich ELISA, 2B3 mAb coated as capture antibody and 8A10 mAb as detection antibody, saliva and serum specimens

| binding [1] | binding [2] | binding [3] | binding [4] | Binder |
| --- | --- | --- | --- | --- |
| binds | binds | binds |  | B1 |
|  | binds |  | binds | B2 |
